Measurements from PMC7819943, “Rice protein-binding microarrays: a tool to detect cis-acting elements near promoter regions in rice”.
Some of the results follow.

By UniProt entry, the sequences of proteins in these tests, tags left out.
UniProt Q0JBA9, entry or part of it: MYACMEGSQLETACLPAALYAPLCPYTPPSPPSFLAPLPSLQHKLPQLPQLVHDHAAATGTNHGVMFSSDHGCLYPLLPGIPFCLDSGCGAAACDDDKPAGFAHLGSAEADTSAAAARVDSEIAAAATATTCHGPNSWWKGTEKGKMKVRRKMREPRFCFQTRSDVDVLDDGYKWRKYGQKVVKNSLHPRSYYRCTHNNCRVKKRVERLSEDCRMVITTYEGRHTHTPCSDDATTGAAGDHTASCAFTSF

target: OsWRKY34 (Oryza sativa, UniProt Q0JBA9 1-250); assay: protein-binding microarray (RPBM); PBS, 2% BSA, 51.3 ng/ul salmon testes DNA, 50 uM zinc acetate, 200 nM TF, 25 C, 1 h; high values mean tight binding; conditions: protein: recombinant; tags: N-terminal polyhistidine and DsRed monomer fusion (pET32a); label: CyDye5-dUTP incorporated in the synthesized complementary strand; 3' TTTTT single-stranded linker to array surface; dsDNA, one strand shown
In short: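 In PBS with 2% BSA, salmon testes DNA and 50 µM zinc acetate, 200 nM protein was incubated on a custom Agilent array at 25 °C for 1 h and then washed off. The array had been made double-stranded by primer extension with Cy5-dUTP and blocked with 2% BSA. The proteins were transcription factors fused N-terminally to polyhistidine and DsRed, expressed in E. coli BL21-CodonPlus and purified on Ni–NTA. The binding signal is per-feature fluorescence intensity (arbitrary units) from an Axon 4000B scanner.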

| Sequence | binding signal |
| --- | --- |
| CCGCGTCGCCGCCACCACCACGTCGCCTGTCGCCAGCCTACGGAGTCACCTAGTGCAG | 8270 fluorescence intensity (a.u.) |
| ATTTGACCACGTTGACCAATTGTATAAAATTGGGGACGACCGGAGTCACCTAGTGCAG | 11400 fluorescence intensity (a.u.) |
| TCAGTGCAAAATATCTCGTACATTAGTATCATCACTTTCTCGGAGTCACCTAGTGCAG | 8360 fluorescence intensity (a.u.) |
| GAGTACTTTCTGACTCTGAGCTTGAAGTCTATGCCACATCCGGAGTCACCTAGTGCAG | 8280 fluorescence intensity (a.u.) |
| AATTTCACTTTCGATCTTAATTATTTTACCTGGTTCATTTCGGAGTCACCTAGTGCAG | 10900 fluorescence intensity (a.u.) |
| GCCGATAGAGGCATGGGGTTTGTTCAGATTGATGTCATTTCGGAGTCACCTAGTGCAG | 9370 fluorescence intensity (a.u.) |
| TCAGAGGTTTTCTTTTCTTCTTCTGCGAATTTCCTCTGACCGGAGTCACCTAGTGCAG | 10100 fluorescence intensity (a.u.) |
| TATATTTTTTACAGGTTTGTGGGCATTTTTCTCTGGGCCCCGGAGTCACCTAGTGCAG | 8640 fluorescence intensity (a.u.) |
| AATTTTTCTATGGTTCTTGTGTGTCCCTAAGCGTGAAAAACGGAGTCACCTAGTGCAG | 9200 fluorescence intensity (a.u.) |
| ATACCATCATATACACCAGCCATTGATCTTTTTTTTTAATCGGAGTCACCTAGTGCAG | 8390 fluorescence intensity (a.u.) |
| ATGTGGTCTATAGAAGAAAAATATTTCTATTTCATTTCATCGGAGTCACCTAGTGCAG | 8130 fluorescence intensity (a.u.) |
| AGTCCACCTCTGCGCCCGGCCCGCCGCCGCCTCGTCGCCACGGAGTCACCTAGTGCAG | 10900 fluorescence intensity (a.u.) |
| GATTGGTTTTGCTTCGCTCTCATGAAATTGTTTCATAGTACGGAGTCACCTAGTGCAG | 8430 fluorescence intensity (a.u.) |
| GCGCGCTCCAATGTCGCCACGCTGTGGCGCCCTCGTGTCGCGGAGTCACCTAGTGCAG | 8200 fluorescence intensity (a.u.) |
| AGTCCACACACACACTTCTTGCACATCCGGTACTTGTCAACGGAGTCACCTAGTGCAG | 13400 fluorescence intensity (a.u.) |
| AGTAGGATCCATTTGTCATATATATATATATTTTATTAAACGGAGTCACCTAGTGCAG | 10300 fluorescence intensity (a.u.) |
| GCGCTGCACCACTCGCCGCTTTACCCGCCGTTCTCCTCCTCGGAGTCACCTAGTGCAG | 14300 fluorescence intensity (a.u.) |
| GTCTCCCGGTGAGGAGCCCCACGCTCCATCAATGTATTTTCGGAGTCACCTAGTGCAG | 8230 fluorescence intensity (a.u.) |
| GTTTCAAGTAATTTCATGGGTCTTTTGTTTTTTGAGACAGCGGAGTCACCTAGTGCAG | 9110 fluorescence intensity (a.u.) |
| GTTTGGTATTGGATTCGTCTTGTTTTGGGCATTTCTTGCTCGGAGTCACCTAGTGCAG | 11200 fluorescence intensity (a.u.) |
| GCTTCCGACGTGCTTCTGCCATTCATTACACCATGTTTCTCGGAGTCACCTAGTGCAG | 15700 fluorescence intensity (a.u.) |

| Sequence | binding signal |
| --- | --- |
| TTGGCGCCAAGTTATCTGCTTGCCGCGCGCCATTTCTCTCCGGAGTCACCTAGTGCAG | 8850 fluorescence intensity (a.u.) |
| GGGTGTTGCCGTGTTTTCTATTTTCCCAGTGGGTTCTTCACGGAGTCACCTAGTGCAG | 8360 fluorescence intensity (a.u.) |
| GCTTATTTCCTTCACAGGGCTGAGTGGCTCTATGCATTTTCGGAGTCACCTAGTGCAG | 9080 fluorescence intensity (a.u.) |
| ATAGACTTTTTCCTTGTGAATTACGGGCCCCACCTGTCAACGGAGTCACCTAGTGCAG | 8480 fluorescence intensity (a.u.) |
| CTTCCTCCTCCGTTGGGGTTGCGGGTGAGGAGAGAGACGACGGAGTCACCTAGTGCAG | 9250 fluorescence intensity (a.u.) |
| CCCACCAGCCGCCGCCACCTCGGCCAATGCGCCGCCGCGCCGGAGTCACCTAGTGCAG | 8050 fluorescence intensity (a.u.) |
| GATAAAATATGCTTTTCATCCGGCCCAAGCTTCATTGACACGGAGTCACCTAGTGCAG | 8030 fluorescence intensity (a.u.) |
| TGCACAAACTAACAAGCGCATGTACCATCCTTTTTATTCTCGGAGTCACCTAGTGCAG | 9360 fluorescence intensity (a.u.) |
| TTCCCGGATGCACGCCAATCCACCGGACAGTCAATTCAATCGGAGTCACCTAGTGCAG | 8950 fluorescence intensity (a.u.) |
| TGAGTTTGTTCTGACCCGATTCGCCACTAGGCACCAGTATCGGAGTCACCTAGTGCAG | 9200 fluorescence intensity (a.u.) |
| AGCCATTTTATCCATACTATCTTTCTACTAGGTTCTGTTGCGGAGTCACCTAGTGCAG | 9400 fluorescence intensity (a.u.) |
| TCCCATGTAGTACCGCGCCACCACACAATCTTGCCCTGTTCGGAGTCACCTAGTGCAG | 10200 fluorescence intensity (a.u.) |
| CTAACGGTCCACGACTGTTTGACCGAACCGCCAGTACAACCGGAGTCACCTAGTGCAG | 10500 fluorescence intensity (a.u.) |
| TGCCTCGCCCTCGCTCTCCTCGTTTCACACTTCTCCGCTCCGGAGTCACCTAGTGCAG | 8820 fluorescence intensity (a.u.) |
| ATTGGTTGGTTTAGCTCAAGTGTTTTGCATATGCAAGTCTCGGAGTCACCTAGTGCAG | 10900 fluorescence intensity (a.u.) |
| CCAGTTTGTATCTCATGTATTGGGCCTCGAAATCTGGTATCGGAGTCACCTAGTGCAG | 12200 fluorescence intensity (a.u.) |
| CTTGTCCCGTATCCGCGCCCCGCGTTCGCATCGATCGATCCGGAGTCACCTAGTGCAG | 12200 fluorescence intensity (a.u.) |
| CGTGTCCAGCTATATATTCAGTGTTTCGACAATTTCGTCTCGGAGTCACCTAGTGCAG | 8990 fluorescence intensity (a.u.) |
| TCCTACGCATCCTCTCCTATCTCCATCCACGGCGAGCACTCGGAGTCACCTAGTGCAG | 8220 fluorescence intensity (a.u.) |
| AAGTCTATTTTGCTTTCTCAACTCTTGCTCTTGAGTGAATCGGAGTCACCTAGTGCAG | 9910 fluorescence intensity (a.u.) |
| CTCCGCCGCCACGCTCGCCCGCTGTTTGCTCCGTCCGCAGCGGAGTCACCTAGTGCAG | 8350 fluorescence intensity (a.u.) |

Some of the entries so far, field by field.
TTGGCGCCAAGTTATCTGCTTGCCGCGCGCCATTTCTCTCCGGAGTCACCTAGTGCAG
  binding signal = 8850 fluorescence intensity (a.u.)
TCCCATGTAGTACCGCGCCACCACACAATCTTGCCCTGTTCGGAGTCACCTAGTGCAG
  binding signal = 10200 fluorescence intensity (a.u.)
